Laboratory results: the supplement of paper PMC6078165

Tested on: BT20
Test: relative JC-1 red fluorescence (viability) vs pre-drug, coculture with fibroblast (fraction); higher = more viable cancer cells
Procedure: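 JC-1 labelled TNBC cells cocultured 1:1 (1,500 cells each) with CellTrace Violet stained primary or stromal fibroblasts in 384-well plates in FluoroBrite medium, treated with one of 42 anticancer drugs at 0.1, 1, 10 or 100 uM. JC-1 red fluorescence (mitochondrial integrity in cancer cells only) was read by plate reader every 8 h for 72 h. Values are normalised to each well's pre-drug value. The stock of one drug was tenfold lower, so its dose labels may be too high.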

CN(C)CCOc1ccc(/C(=C(/CCCl)c2ccccc2)c2ccccc2)cc1 [Toremifene]
relative JC-1 red fluorescence
Details | 8 h | 16 h | 24 h | 32 h | 40 h | 48 h | 56 h | 64 h | 72 h
0.1 µM, coculture fibroblast: C12385 | 0.911 | 0.82 | 0.776 | 0.711 | 0.637 | 0.596 | 0.566 | 0.538 | 0.52
0.1 µM, coculture fibroblast: H6013 | 0.9253 | 0.89 | 0.857 | 0.811 | 0.778 | 0.763 | 0.768 | 0.753 | 0.745
0.1 µM, coculture fibroblast: H6019 | 0.87709 | 0.8088 | 0.787 | 0.715 | 0.665 | 0.646 | 0.613 | 0.586 | 0.567
0.1 µM, coculture fibroblast: H6076 | 0.923 | 0.921 | 0.825 | 0.786 | 0.75492 | 0.733 | 0.717 | 0.714 | 0.694
0.1 µM, coculture fibroblast: H6231 | 0.824 | 0.9138 | 0.76 | 0.69 | 0.641 | 0.595 | 0.558 | 0.526 | 0.497
0.1 µM, coculture fibroblast: HADF | 0.845 | 0.8723 | 0.833 | 0.801 | 0.776 | 0.7325 | 0.722 | 0.719 | 0.687
0.1 µM, coculture fibroblast: HCFa | 0.915 | 0.879 | 0.8406 | 0.785 | 0.743 | 0.704 | 0.679 | 0.65 | 0.6104
0.1 µM, coculture fibroblast: HCPF | 0.951 | 0.87 | 0.81 | 0.78 | 0.745 | 0.7 | 0.665 | 0.66 | 0.62
0.1 µM, coculture fibroblast: HHSteC | 0.925 | 0.855 | 0.818 | 0.734 | 0.684 | 0.635 | 0.599 | 0.573 | 0.54
0.1 µM, coculture fibroblast: HMF | 0.949 | 0.861 | 0.773 | 0.7112 | 0.673 | 0.634 | 0.604 | 0.572 | 0.554
0.1 µM, coculture fibroblast: HPFa | 0.9331 | 0.837 | 0.85 | 0.756 | 0.737 | 0.697 | 0.68 | 0.656 | 0.61
0.1 µM, coculture fibroblast: HUF | 0.928 | 0.812 | 0.769 | 0.677 | 0.619 | 0.576 | 0.546 | 0.527 | 0.5
0.1 µM, coculture fibroblast: Hs5 | 0.928 | 0.883 | 0.795 | 0.739 | 0.697 | 0.656 | 0.617 | 0.577 | 0.549
0.1 µM, coculture fibroblast: Hs27A | 0.762 | 0.958 | 0.854 | 0.845 | 0.792 | 0.762 | 0.743 | 0.711 | 0.661
0.1 µM, coculture fibroblast: Hs343T | 0.956 | 0.8568 | 0.744 | 0.699 | 0.643 | 0.595 | 0.557 | 0.538 | 0.504
0.1 µM, coculture fibroblast: WS1 | 0.86 | 0.775 | 0.72 | 0.642 | 0.568 | 0.535 | 0.498 | 0.478 | 0.46
1 µM, coculture fibroblast: C12385 | 0.9283 | 0.894 | 0.81 | 0.758 | 0.71 | 0.684 | 0.663 | 0.639 | 0.621
1 µM, coculture fibroblast: H6013 | 0.9773 | 0.91738 | 0.894 | 0.87 | 0.833 | 0.814 | 0.812 | 0.801 | 0.782
1 µM, coculture fibroblast: H6019 | 0.893 | 0.842 | 0.811 | 0.763 | 0.722 | 0.707 | 0.666 | 0.638 | 0.614
1 µM, coculture fibroblast: H6076 | 0.7743 | 0.92 | 0.871 | 0.851 | 0.816 | 0.79 | 0.763 | 0.756 | 0.737
1 µM, coculture fibroblast: H6231 | 0.85 | 0.9343 | 0.85 | 0.796 | 0.766 | 0.715 | 0.681 | 0.66 | 0.634
1 µM, coculture fibroblast: HADF | 0.885 | 0.969 | 0.896 | 0.891 | 0.852 | 0.808 | 0.784 | 0.756 | 0.724
1 µM, coculture fibroblast: HCFa | 0.949 | 0.862 | 0.876 | 0.824 | 0.79 | 0.758 | 0.743 | 0.727 | 0.69
1 µM, coculture fibroblast: HCPF | 0.7469 | 0.915 | 0.8566 | 0.823 | 0.785 | 0.753 | 0.7016 | 0.6956 | 0.6563
1 µM, coculture fibroblast: HHSteC | 0.9614 | 0.921 | 0.824 | 0.792 | 0.775 | 0.773 | 0.827 | 0.792 | 0.764
1 µM, coculture fibroblast: HMF | 0.737 | 0.953 | 0.826 | 0.774 | 0.719 | 0.676 | 0.64 | 0.6 | 0.57
1 µM, coculture fibroblast: HPFa | 0.9386 | 0.882 | 0.906 | 0.832 | 0.807 | 0.772 | 0.742 | 0.71 | 0.66
1 µM, coculture fibroblast: HUF | 0.951 | 0.884 | 0.8328 | 0.755 | 0.706 | 0.657 | 0.627 | 0.613 | 0.596
1 µM, coculture fibroblast: Hs5 | 0.8318 | 0.958 | 0.847 | 0.79 | 0.7436 | 0.7067 | 0.667 | 0.622 | 0.586
1 µM, coculture fibroblast: Hs27A | 0.886 | 0.891 | 0.816 | 0.867 | 0.86 | 0.879 | 0.842 | 0.773 | 0.822
1 µM, coculture fibroblast: Hs343T | 0.76 | 0.951 | 0.8558 | 0.7875 | 0.7185 | 0.6599 | 0.607 | 0.584 | 0.546
1 µM, coculture fibroblast: WS1 | 0.8889 | 0.835 | 0.749 | 0.665 | 0.606 | 0.571 | 0.533 | 0.505 | 0.491
10 µM, coculture fibroblast: C12385 | 0.88404 | 0.827 | 0.776 | 0.713 | 0.66 | 0.642 | 0.613 | 0.5884 | 0.566
10 µM, coculture fibroblast: H6013 | 0.917 | 0.815 | 0.939 | 0.928 | 0.903 | 0.844 | 0.828 | 0.785 | 0.758
10 µM, coculture fibroblast: H6019 | 0.856 | 0.815 | 0.778 | 0.723 | 0.678 | 0.646 | 0.609 | 0.577 | 0.547
10 µM, coculture fibroblast: H6076 | 0.771 | 0.788 | 0.9257 | 0.86554 | 0.7934 | 0.745 | 0.697 | 0.6845 | 0.652
10 µM, coculture fibroblast: H6231 | 0.81 | 0.876 | 0.906 | 0.844 | 0.7959 | 0.744 | 0.719 | 0.6796 | 0.642
10 µM, coculture fibroblast: HADF | 0.861 | 0.87 | 0.91 | 0.93 | 0.898 | 0.877 | 0.851 | 0.828 | 0.797
10 µM, coculture fibroblast: HCFa | 0.839 | 0.842 | 0.829 | 0.862 | 0.888 | 0.791 | 0.812 | 0.814 | 0.768
10 µM, coculture fibroblast: HCPF | 0.846 | 0.954 | 0.926 | 0.8613 | 0.8153 | 0.787 | 0.731 | 0.72 | 0.686
10 µM, coculture fibroblast: HHSteC | 0.94942 | 0.912 | 0.89 | 0.836 | 0.793 | 0.771 | 0.734 | 0.73 | 0.711
10 µM, coculture fibroblast: HMF | 0.816 | 0.847 | 0.94 | 0.887 | 0.845 | 0.793 | 0.76 | 0.721 | 0.692
10 µM, coculture fibroblast: HPFa | 0.95 | 0.916 | 0.764 | 0.876 | 0.845 | 0.822 | 0.791 | 0.771 | 0.733
10 µM, coculture fibroblast: HUF | 0.89668 | 0.839 | 0.824 | 0.755 | 0.723 | 0.698 | 0.673 | 0.647 | 0.622
10 µM, coculture fibroblast: Hs5 | 0.717 | 0.821 | 0.9418 | 0.881 | 0.8024 | 0.75 | 0.696 | 0.658 | 0.634
10 µM, coculture fibroblast: Hs27A | 0.766 | 0.73 | 0.952 | 0.823 | 0.9 | 0.838 | 0.931 | 0.903 | 0.866
10 µM, coculture fibroblast: Hs343T | 0.742 | 0.709 | 0.9512 | 0.9064 | 0.856 | 0.808 | 0.731 | 0.695 | 0.655
10 µM, coculture fibroblast: WS1 | 0.913 | 0.906 | 0.902 | 0.905 | 0.81 | 0.82 | 0.806 | 0.885 | 0.84
100 µM, coculture fibroblast: C12385 | 0.452 | 0.335 | 0.322 | 0.27 | 0.202 | 0.174 | 0.143 | 0.12 | 0.0927
100 µM, coculture fibroblast: H6013 | 0.614 | 0.505 | 0.591 | 0.4662 | 0.414 | 0.367 | 0.355 | 0.317 | 0.263
100 µM, coculture fibroblast: H6019 | 0.455 | 0.362 | 0.38 | 0.334 | 0.286 | 0.26 | 0.233 | 0.209 | 0.187
100 µM, coculture fibroblast: H6076 | 0.568 | 0.485 | 0.445 | 0.404 | 0.374 | 0.333 | 0.298 | 0.258 | 0.206
100 µM, coculture fibroblast: H6231 | 0.464 | 0.334 | 0.273 | 0.233 | 0.208 | 0.174 | 0.14 | 0.113 | 0.0844
100 µM, coculture fibroblast: HADF | 0.453 | 0.306 | 0.349 | 0.244 | 0.217 | 0.171 | 0.152 | 0.13 | 0.0894
100 µM, coculture fibroblast: HCFa | 0.652 | 0.52 | 0.587 | 0.489 | 0.462 | 0.434 | 0.42 | 0.392 | 0.352
100 µM, coculture fibroblast: HCPF | 0.584 | 0.493 | 0.426 | 0.387 | 0.356 | 0.31 | 0.271 | 0.232 | 0.171
100 µM, coculture fibroblast: HHSteC | 0.403 | 0.302 | 0.328 | 0.233 | 0.196 | 0.164 | 0.142 | 0.11 | 0.0658
100 µM, coculture fibroblast: HMF | 0.603 | 0.555 | 0.54 | 0.492 | 0.469 | 0.409 | 0.374 | 0.329 | 0.267
100 µM, coculture fibroblast: HPFa | 0.539 | 0.445 | 0.502 | 0.422 | 0.399 | 0.362 | 0.348 | 0.328 | 0.274
100 µM, coculture fibroblast: HUF | 0.568 | 0.419 | 0.439 | 0.399 | 0.377 | 0.348 | 0.34 | 0.322 | 0.305
100 µM, coculture fibroblast: Hs5 | 0.666 | 0.694 | 0.663 | 0.611 | 0.576 | 0.518 | 0.467 | 0.409 | 0.341
100 µM, coculture fibroblast: Hs27A | 0.557 | 0.427 | 0.486 | 0.335 | 0.295 | 0.267 | 0.246 | 0.219 | 0.175
100 µM, coculture fibroblast: Hs343T | 0.453 | 0.317 | 0.304 | 0.268 | 0.25 | 0.213 | 0.183 | 0.152 | 0.11
100 µM, coculture fibroblast: WS1 | 0.297 | 0.196 | 0.195 | 0.15 | 0.109 | 0.0853 | 0.0619 | 0.044 | 0.0225

The reference is the same well before dosing, and untreated signal decays as well.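 Fibroblast labels name human fibroblasts: mostly primary ones from tissues such as uterus (C12385, HUF), lung (H6013), bone (Hs27A), adrenal (HADF) and skin (WS1), plus mammary HMF and breast cancer-associated Hs343T. The cancer cells are basal-like or mesenchymal-like triple-negative breast cancer lines. The paper calls a changed response a hit when it shifts by more than 3x the replicate standard deviation. The tissue of the other fibroblasts is not given here.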
